Experimental data: paper PMC11178869
Where a chain is given by its changes, count along the chain named. These are yes or no findings as the source states them, for the method shown. For some assays here: Binding seen in cells or lysates may run through a third protein. Some entries that bind do so weakly or less than the wild type. For some assays here: Where a sequence is shown, tags or fusion partners need not be part of it. Blank lines part the entries; values can stand above or below the binder they belong to.

How the values were obtained:
[1] = target: T1, TatC(L189A) with C-terminal hexahistidine tag (E. coli) (UniProt P69423); experiment: native gel or EMSA; BN-PAGE/Western blot (antisera against TatA, TatB, TatC) of digitonin-solubilized membranes and of Ni-NTA-purified samples; cells without or with overproduced EfeB
T1 sequence: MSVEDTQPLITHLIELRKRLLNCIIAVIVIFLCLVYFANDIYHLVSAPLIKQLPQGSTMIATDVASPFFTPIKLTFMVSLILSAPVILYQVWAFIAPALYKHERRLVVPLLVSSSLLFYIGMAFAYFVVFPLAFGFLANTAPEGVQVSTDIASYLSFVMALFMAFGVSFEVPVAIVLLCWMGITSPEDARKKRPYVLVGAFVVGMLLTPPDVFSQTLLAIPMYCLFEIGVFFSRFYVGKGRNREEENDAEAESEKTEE

[2] = target: T2, TatC(I50Y) with C-terminal hexahistidine tag (E. coli) (UniProt P69423); experiment: as above
T2 sequence: T1 sequence with I50Y, A189L

[3] = target: T3, TatC(Y154A) with C-terminal hexahistidine tag (E. coli) (UniProt P69423); experiment: as above
T3 sequence: T1 sequence with Y154A, A189L

TatA (E. coli) = TatA (E. coli) (UniProt P69428); experiment: as above
[4] = target: T4, TatC with C-terminal hexahistidine tag, wild type (TatABC system) (E. coli) (UniProt P69423); experiment: as above
T4 sequence: T1 sequence with A189L

[5] = target: T1, TatC(L189A) with C-terminal hexahistidine tag (E. coli); experiment: pull-down; co-purification with C-terminally H6-tagged TatC on Ni-NTA agarose from membranes solubilized with 2% digitonin (50 mM Bis-Tris pH 7.0, 0.1% digitonin, 20% sucrose, MgCl2); eluate analysed by SDS-PAGE/silver stain and Western blot with antisera against TatA, TatB, TatC or EfeB; cells without or with overproduced EfeB
[6] = target: T2, TatC(I50Y) with C-terminal hexahistidine tag (E. coli); experiment: as above
[7] = target: T3, TatC(Y154A) with C-terminal hexahistidine tag (E. coli); experiment: as above
[8] = target: T4, TatC with C-terminal hexahistidine tag, wild type (TatABC system) (E. coli); experiment: as above

binding [1]: binds | binding [2]: binds | binding [3]: binds | binding (TatA (E. coli)): binds | binding [4]: binds | binding [5]: binds | binding [6]: binds | binding [7]: binds | binding [8]: binds
B1: TatA (protein, UniProt P69428 1-89)
chain: MGGISIWQLLIIAVIVVLLFGTKKLGSIGSDLGASIKGFKKAMSDDEPKQDKTSQDADFTAKTIADKQADTNQEQAKTEDAKRHDKEQV

binding [1]: binds | binding [2]: binds | binding [3]: binds | binding [4]: binds | binding [5]: binds | binding [6]: binds | binding [7]: binds | binding [8]: binds
B2: TatB (protein, UniProt P69425 1-171)
chain: MFDIGFSELLLVFIIGLVVLGPQRLPVAVKTVAGWIRALRSLATTVQNELTQELKLQEFQDSLKKVEKASLTNLTPELKASMDELRQAAESMKRSYVANDPEKASDEAHTIHNPVVKDNEAAHEGVTPAAAQTQASSPEQKPETTPEPVVKPAADAEPKTAAPSPSSSDKP
